Results taken from patent US20250312444A1.
Results are given in words; binding and its absence hold for the method and conditions named. Some results given as binding are weak or reduced against the parent protein; the word gives no strength.

The chains behind the UniProt entries cited, without tags or fusion partners. Residues count along the entry.
UniProt P02769, residues 25-607: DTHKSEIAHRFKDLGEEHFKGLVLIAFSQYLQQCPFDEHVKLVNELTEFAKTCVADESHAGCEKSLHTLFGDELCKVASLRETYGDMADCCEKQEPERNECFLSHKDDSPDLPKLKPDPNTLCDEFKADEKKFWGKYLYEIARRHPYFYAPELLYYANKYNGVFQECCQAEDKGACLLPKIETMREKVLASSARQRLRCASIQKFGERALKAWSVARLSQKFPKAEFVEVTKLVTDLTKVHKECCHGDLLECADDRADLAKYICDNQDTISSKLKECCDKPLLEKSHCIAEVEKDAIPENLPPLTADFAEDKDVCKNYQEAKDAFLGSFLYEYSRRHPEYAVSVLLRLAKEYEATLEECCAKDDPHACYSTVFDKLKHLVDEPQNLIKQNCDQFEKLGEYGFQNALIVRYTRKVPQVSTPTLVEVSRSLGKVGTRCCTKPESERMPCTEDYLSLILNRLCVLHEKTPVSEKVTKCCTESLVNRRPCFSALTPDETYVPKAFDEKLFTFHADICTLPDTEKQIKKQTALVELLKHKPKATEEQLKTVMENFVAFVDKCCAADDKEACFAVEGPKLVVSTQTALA
UniProt P49822, residues 25-608: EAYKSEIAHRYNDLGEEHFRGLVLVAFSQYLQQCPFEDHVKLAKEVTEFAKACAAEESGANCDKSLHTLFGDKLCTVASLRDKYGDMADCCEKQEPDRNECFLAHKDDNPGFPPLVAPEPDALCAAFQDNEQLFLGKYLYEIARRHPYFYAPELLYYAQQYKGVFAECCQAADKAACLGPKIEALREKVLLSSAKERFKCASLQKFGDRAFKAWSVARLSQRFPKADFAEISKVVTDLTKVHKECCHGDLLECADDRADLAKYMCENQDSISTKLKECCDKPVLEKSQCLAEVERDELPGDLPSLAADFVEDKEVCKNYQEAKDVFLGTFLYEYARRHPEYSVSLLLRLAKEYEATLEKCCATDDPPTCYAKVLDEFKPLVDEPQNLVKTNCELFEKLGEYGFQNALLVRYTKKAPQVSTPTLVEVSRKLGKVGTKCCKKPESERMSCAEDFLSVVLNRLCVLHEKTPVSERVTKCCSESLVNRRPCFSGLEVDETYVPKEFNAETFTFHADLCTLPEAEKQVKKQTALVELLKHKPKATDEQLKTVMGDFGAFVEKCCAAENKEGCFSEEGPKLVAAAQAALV

What was measured:
[1] = molecular target: bovine serum albumin (bovine) (UniProt P02769); experiment: SPR Biacore T200, fusion protein captured by anti-VHH antibody, albumin as analyte
[2] = molecular target: dog serum albumin (dog) (UniProt P49822); experiment: SPR Biacore T200, albumin amine-coupled, fusion protein as analyte

Binder	binding [1]	binding [2]
0051 (protein) EVQLLESGGGLVQPGGSLRLSCAASGFTFLTSCMGWFRQAPGKEREGVSSIYTVGGSTFYTNSVKGRFTISRDNSKNTLYLQMNSLRAEDTAVYYCAAGSPARCRLRDPTTFDYWGQGTLVTVSSGGGGQGGGGQGGGGQGGGGQGGGGQSWMEEVIKLCGRELVRAQIAICGMSTWSGGGSGGSGGGQLYSALANKCCHVGCTKRSLARFC	binds	binds
0064 (protein) EVQLLESGGGLVQPGGSLRLSCAASGNTYLTSCMGWFRQAPGKEREGVSSIYTVGGSTFYTNSVKGRFTISRDNSKNTLYLQMNSLQPEDTAVYYCAAGSPARCRLRDPTTFDYWGQGTLVTVSSGGGGQGGGGQGGGGQGGGGQGGGGQSWMEEVIKLCGRELVRAQIAICGMSTWSGGGSGGSGGGQLYSALANKCCHVGCTKRSLARFC	binds	–

Now from value to binder:

binding [1]	binding [2]	Binder
binds	–	0065 (protein) EVQLLESGGGLVQPGGSLRLSCAASGFTFLTSCMGWFRQAPGKEREGVSSIYTVGGSTFYTNSVKGRFTISRDNSKNTLYLQMNSLRPEDTAVYYCAAGSPARCRLRDPTTFDYWGQGTLVTVSSGGGGQGGGGQGGGGQGGGGQGGGGQSWMEEVIKLCGRELVRAQIAICGMSTWSGGGSGGSGGGQLYSALANKCCHVGCTKRSLARFC
binds	–	0052 (protein) EVQLLESGGGLVQPGGSLRLSCAASGFTFLTSCMGWFRQAPGKEREGVSSIYTVGGSTFYTNSVKGRFTISRDNSKNTLYLQMNSLRAEDTAVYYCAAGSPARCRLRDPTTFDYWGQGTLVTVSSPGPAPGPAPGPAPGPAPGPAPGPAPGPAPGPASWMEEVIKLCGRELVRAQIAICGMSTWSGGGSGGSGGGQLYSALANKCCHVGCTKRSLARFC
